# Library screening results

Chains of the proteins cited; added tags and fusions are not shown.
UniProt E9BF75, entry or part of it: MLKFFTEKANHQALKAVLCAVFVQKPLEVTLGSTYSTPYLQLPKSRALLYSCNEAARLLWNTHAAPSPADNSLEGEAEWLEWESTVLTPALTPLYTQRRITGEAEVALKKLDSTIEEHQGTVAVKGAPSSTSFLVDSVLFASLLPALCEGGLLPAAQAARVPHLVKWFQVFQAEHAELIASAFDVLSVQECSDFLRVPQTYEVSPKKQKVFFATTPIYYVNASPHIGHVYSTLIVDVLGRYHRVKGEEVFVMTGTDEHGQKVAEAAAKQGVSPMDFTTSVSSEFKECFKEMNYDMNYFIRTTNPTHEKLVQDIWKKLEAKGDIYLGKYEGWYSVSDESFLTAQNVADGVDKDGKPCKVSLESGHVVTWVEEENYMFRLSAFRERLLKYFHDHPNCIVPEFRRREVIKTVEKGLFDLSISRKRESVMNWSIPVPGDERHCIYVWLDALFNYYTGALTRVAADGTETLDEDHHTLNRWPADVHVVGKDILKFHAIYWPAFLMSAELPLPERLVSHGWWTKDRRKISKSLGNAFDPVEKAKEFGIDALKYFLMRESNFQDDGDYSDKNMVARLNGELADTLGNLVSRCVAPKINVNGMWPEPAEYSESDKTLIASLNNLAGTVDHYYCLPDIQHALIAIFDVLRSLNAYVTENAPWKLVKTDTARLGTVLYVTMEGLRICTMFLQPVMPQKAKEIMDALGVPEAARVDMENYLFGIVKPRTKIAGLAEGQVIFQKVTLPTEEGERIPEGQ

All values are in %.
The record does not define 0% and 100%; most values in the screen are far below 50% and negative numbers occur (in some assays of this library far below -100).
This is an unselected part of the compounds tested.
A dash means the value is not listed here; it may have been measured.

A: 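Methionyl-tRNA synthetase (putative), Leishmania donovani (UniProt E9BF75). Primary screen of methionyl-tRNA synthetase; the read-out is not stated. The test concentration is not given. Values are per cent inhibition. Of about 68,000 compounds tested this way, about 24 (0.035%) reached 50% or more in at least one test.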
B: 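Assay on Mycobacterium tuberculosis, filed only as a heat shock assay from Cornell; the read-out is not stated. The concentration is filed as 10 mM, unlikely as a test dose, so the dose is not known. Direction is inferred from retests: higher values go with stronger inhibition. About 69,000 compounds were tested under these conditions; 1.4% (about 930) showed 50% or more at least once.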

COCC1CN(Cc2ccc(F)cc2)Cc2nnn(CC3CC3)c21 (stereo not shown) read A: 8.602%. With NC(=O)c1ccc(OCC(=O)N2CCCC(n3cccn3)C2)cc1 (stereo not shown) the screen gave A: 13.89%; B: 3.338%. With O=C(Nc1ccc(F)c(-n2cccc2)c1)NC1(CCO)CCOCC1 the screen gave A: 11.33%; B: 1.102%. O=C(Cc1ccc(Cl)cc1)N1CCC(O)(C(F)(F)F)C1 (stereo not shown) gave A: 4.749%; B: 10.83%. With COc1cc(F)cc(NC(=O)NCc2cccc(N(C)C)n2)c1 the screen gave A: 1.42%; B: 6.232%. CCn1cc(NC(=O)NCc2ccc3c(c2)OCCO3)cn1 gave A: 8.014%; B: 13.51%.

With CNC(=O)CN1CCC(NC(=O)N(C)Cc2c(C)noc2C)CC1 the screen gave A: 14.21%; B: -9.963%. For O=C(CN1CCCC1c1nc(-c2ccccn2)no1)N1CCOCC1 (stereo not shown) the result was A: -2.892%; B: 13.34%. Result for Cc1ccccc1CNc1ccccc1OCC(=O)N1CCOCC1 was A: 16.06%; B: -11%. CNc1ncc(CN(C)C(=O)[C@@]23CNC[C@@H]2CN(C(=O)C2CC2)C3)cn1 read A: 11.34%. With CCCNC(=O)CN1CCC(C(=O)Nc2cnn(CC)c2)CC1 the screen gave A: 14.96%; B: -2.173%. Result for O=C(COc1cccc(Cl)c1)N1CCOCC(O)(CN2CCCC2)C1 (stereo not shown) was A: 10.36%; B: 12.49%.

With O=C(c1cn(Cc2ccccc2)c2ncccc12)N1CCOCC1 the screen gave A: 14.72%; B: 25.66%. With CN(C)CCN1CC(C(=O)N(C)Cc2cc3cc(F)ccc3[nH]2)CC1=O (stereo not shown) the screen gave A: 16.72%; B: -12.99%. With CC(C)NC(=O)N1CCC2(C1)CN(c1ccsc1)C(=O)CN2C.O=C(O)C(F)(F)F (stereo not shown) the screen gave B: 5.474%. Cc1cc(-c2cnc(N3CCN(C)CC3)nc2C(C)C)on1 read A: 6.395%; B: 15.93%. Cc1ccc(CCCC(=O)N2CCN(C3CCCN(C)C3)CC2)s1 (stereo not shown) gave A: 16.33%; B: -24.58%. Cc1cc(C)n(CC2CCCCN2C(=O)c2ccc3[nH]nnc3c2)n1 (stereo not shown) gave A: 19.23%; B: 16.75%.

With CC(C)c1cc(C2CCN(C(=O)Cn3cnc4ccccc43)CC2)[nH]n1 the screen gave A: 10.84%; B: 4.495%. For CC(OCC1CC1)C(=O)N1CCCN(Cc2nccn2C)CC1 (stereo not shown) the result was A: 6.944%; B: -7.885%. With CCS(=O)(=O)N1CCC[C@]2(C(=O)N(C)C)CN(c3ccccn3)C[C@@H]2C1 the screen gave A: 14.64%. CCN(Cc1nccn1C)C(=O)c1ccc(NCc2ccccc2)nc1 gave A: 7.035%; B: 21.56%. Cc1ccc(C(=O)NC2CCN(C)CC2)cc1N(C)S(C)(=O)=O read A: 11.25%; B: 1.399%. With Cc1noc(C)c1CN1CCOCC12CCN(c1nccs1)CC2 the screen gave A: 13.51%.

Cc1cc(N2CCC(n3cc(CN4CCC[C@@H]4CO)nn3)CC2)ccn1 read A: 13.68%; B: -2.616%. With O=C(Cn1cc(-c2ccccc2)ncc1=O)Nc1nc(C2CC2)n[nH]1 the screen gave A: 16.82%; B: 17.11%. With COc1ccc([C@@H]2CN(C(=O)CS(C)(=O)=O)C[C@H]2NC(C)=O)cc1 the screen gave A: 8.904%; B: 5.24%. With O=C(O)C(F)(F)F.[H][C@]12CCC[C@@]1(COCC(=O)N(C)C)CN(C1CCC1)C2 the screen gave B: -9.293%. For CCc1nnc2n1CCN(C(=O)c1cnc3ccccc3n1)C2 the result was A: -20.35%; B: -2.116%. With c1ccc(COC[C@H]2CC[C@H]3[C@H](CCN3c3ncccn3)O2)nc1 the screen gave A: 22.53%.

CN(Cc1ccc2c(c1)OCO2)C(=O)NCCc1cnn(C)c1 read A: 11.11%; B: -3.113%. With COc1ccc(CNCC(O)c2cccc(O)c2)cc1Br (stereo not shown) the screen gave A: 0.5115%; B: -14.95%. Result for c1nc(CNC2CCOCC2)c2n1CCCN(CC1CC1)C2 was A: -2.667%. For Cc1ncc(C(=O)NCCOc2ccccc2F)c(C)n1 the result was A: 3.927%; B: -156.5%. With CC(C)c1nnc2n1CCN(C(=O)c1ccc3c(c1)NC(=O)CO3)C2 the screen gave A: 6.41%; B: 3.667%. Result for Cc1cc(CN2CCCC(Cn3cncn3)C2)no1 (stereo not shown) was A: 8.197%; B: -8.643%.

CCSCC(C)NCc1cc(-c2ccco2)on1 (stereo not shown) read A: 1.535%; B: 15.31%. COC(=O)c1ccc(N2CCC(N(C)c3ccccc3)CC2)nn1 read A: 9.507%; B: 4.967%. CC(C)Nc1cccc(CC2CCN(C)C2)n1.O=CO (stereo not shown) read B: 4.45%. O=C(O)C(F)(F)F.O=C(O)C(F)(F)F.[H][C@@]12CN(Cc3ccco3)C[C@]1([H])OCCN2CC1CCCO1 (stereo partly shown) read B: -32.36%. CC(C)(C)CN1CCN2C(=O)N(C3CCCCC3)C[C@H]2C1 gave A: 9.023%. For COCCN1CCc2cc(C(=O)N(C)C)c(NC(C)C)nc2CC1 the result was A: 10.78%.

Result for CS(=O)(=O)NCCCNc1ccc(C(F)(F)F)cc1C#N was A: 9.507%; B: -3.648%.

The first 3 entries again:

| structure | A | B |
|---|---|---|
| `COCC1CN(Cc2ccc(F)cc2)Cc2nnn(CC3CC3)c21` (stereo not shown) | 8.602 | - |
| `NC(=O)c1ccc(OCC(=O)N2CCCC(n3cccn3)C2)cc1` (stereo not shown) | 13.89 | 3.338 |
| `O=C(Nc1ccc(F)c(-n2cccc2)c1)NC1(CCO)CCOCC1` | 11.33 | 1.102 |

From ChEMBL document CHEMBL3988442, “University of Dundee, Small-Polar-MMV Screening Library” (2021).